Results as given in paper PMC4227020.

Target: T1, Hemagglutinin (HA)-tagged Necdin (HA-Necdin) (UniProt P25233)
T1 sequence: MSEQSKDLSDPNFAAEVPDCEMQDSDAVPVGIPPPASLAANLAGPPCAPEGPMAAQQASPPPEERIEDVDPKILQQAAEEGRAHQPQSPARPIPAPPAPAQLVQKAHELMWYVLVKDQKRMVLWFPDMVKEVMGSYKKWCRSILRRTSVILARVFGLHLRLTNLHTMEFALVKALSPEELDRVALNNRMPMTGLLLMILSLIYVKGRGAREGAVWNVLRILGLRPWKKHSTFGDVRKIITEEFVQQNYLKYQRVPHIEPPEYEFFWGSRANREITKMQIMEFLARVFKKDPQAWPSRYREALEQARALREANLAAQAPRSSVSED
Experiment: co-IP; lysates of 293T cells co-expressing FLAG-Gα constructs and HA-Necdin; precipitated with anti-Necdin antibodies; blots with anti-FLAG and anti-Necdin

FLAG-Gαi
binding: no binding

No constants are given. Whether binding was seen depends on the method and setting. In cells and extracts the contact can be indirect. Sequences can lack the tags named with a protein.
